# In article PMC5800702:
# These are yes or no findings as the source states them, for the method shown. Binding seen in cells or lysates may run through a third protein. Where a sequence is shown, tags or fusion partners need not be part of it.
# Target: T1, V5-tagged ADV-1 (Neurospora crassa) (UniProt Q9P326)
# T1 sequence: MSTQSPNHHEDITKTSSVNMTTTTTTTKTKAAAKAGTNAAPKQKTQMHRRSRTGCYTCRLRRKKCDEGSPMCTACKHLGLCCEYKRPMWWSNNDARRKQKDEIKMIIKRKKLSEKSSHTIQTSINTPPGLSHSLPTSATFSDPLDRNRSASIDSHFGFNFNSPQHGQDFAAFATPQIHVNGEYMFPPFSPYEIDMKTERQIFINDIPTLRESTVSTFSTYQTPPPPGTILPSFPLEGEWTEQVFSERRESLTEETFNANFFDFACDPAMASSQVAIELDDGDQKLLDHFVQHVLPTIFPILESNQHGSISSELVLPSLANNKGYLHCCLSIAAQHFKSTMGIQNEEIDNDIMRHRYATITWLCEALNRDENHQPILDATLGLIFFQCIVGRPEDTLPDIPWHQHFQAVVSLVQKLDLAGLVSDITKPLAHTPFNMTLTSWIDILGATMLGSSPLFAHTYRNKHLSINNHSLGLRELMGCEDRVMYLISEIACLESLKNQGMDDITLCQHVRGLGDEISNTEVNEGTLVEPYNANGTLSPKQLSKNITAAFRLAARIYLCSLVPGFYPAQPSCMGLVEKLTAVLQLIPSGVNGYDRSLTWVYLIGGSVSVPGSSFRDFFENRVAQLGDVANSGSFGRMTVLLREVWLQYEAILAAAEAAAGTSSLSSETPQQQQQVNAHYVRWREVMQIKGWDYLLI
# Test: co-IP; ADV-1 purified by V5 agarose beads from strain adv-1^V5, csp-6^FLAG, also with DSP crosslink; CSP-6 looked for in the IP sample
substance,measurement,value
CSP-6 tagged with FLAG (Neurospora crassa) (enzyme),binding,no binding
